The source of these data is ChEMBL document CHEMBL3612047, “Synthesis, antiproliferative activity and possible mechanism of action of novel 2-acetamidobenzamides bearing the 2-phenoxy functionality” (Bioorg Med Chem, 2015).

This test concerns K562. Nature of the test: Growth inhibition of human K562 cells incubated for 24 hrs by trypan blue dye exclusion assay. Format: functional, cell-based. The conditions noted are these: K562, 24 h. The method, boiled down:
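K562 cells, about 2 × 10⁵ cells/mL, precultured 24 h, then exposed 24 h to a range of compound concentrations. Viable cells counted by hemocytometer with trypan blue exclusion to derive IC₅₀.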

What is called IC50 is the concentration that inhibits the measured activity by half. Read a low IC50 as higher potency. For the compound `COc1cc2c(c(OC)c1OC)-c1ccc(OC)c(=O)cc1[C@@H](NC(C)=O)CC2` [COLCHICINE], the IC50 worked out at 0.02 µM.
